Values of other authors in patent US6503920B1, “Cabergoline and pramipexole: new uses and combinations” (Pharmacia & Upjohn Company, priority 1998, dated 2003).
For at least one compound, name, drawing or mass did not settle the structure.

What was measured:
PSP patients [1] = settings: doses up to 90 mg/day, 9 subjects
PSP patients [2] = settings: other studies

CC(C)C[C@H]1C(=O)N2CCC[C@H]2[C@]2(O)O[C@](NC(=O)[C@@H]3C=C4c5cccc6[nH]c(Br)c(c56)C[C@H]4N(C)C3)(C(C)C)C(=O)N12 [Bromocriptine]
remaining subjects with modest improvement in parkinsonian symptoms (PSP patients [1]): 3
subjects in whom the study failed to show any significant improvement (PSP patients [1]): 6/9
subjects responding with improvement in parkinsonian features (PSP patients [2]): approximately 25%
